US20220175920A1
No constants are given. Whether binding was seen depends on the method and setting. Some entries that bind do so weakly or less than the wild type.

The chains behind the UniProt entries cited, without tags or fusion partners. Where a name states a change or a piece, a line headed by the entry shows the natural chain unless it says otherwise.
UniProt P25942: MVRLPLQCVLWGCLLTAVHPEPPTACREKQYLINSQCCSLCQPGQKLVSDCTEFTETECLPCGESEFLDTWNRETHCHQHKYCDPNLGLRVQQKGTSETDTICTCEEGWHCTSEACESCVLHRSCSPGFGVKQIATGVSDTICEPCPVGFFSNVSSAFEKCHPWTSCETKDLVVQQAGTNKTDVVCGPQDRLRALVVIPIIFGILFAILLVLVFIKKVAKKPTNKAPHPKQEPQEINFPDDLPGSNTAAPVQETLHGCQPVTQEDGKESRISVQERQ

Tests used:
[1] = molecular target: CD40 E28A FAS (mutated CD40 ectodomain fused to FAS) on CHO cells (human); experiment: flow cytometry on CHO cells expressing CD40 E28A FAS (FIG. 19)
[2] = molecular target: CD40 E28A FAS (mutated CD40 ectodomain fused to FAS) on CHO cells (human); experiment: flow cytometry, stably transfected CHO cells, 1 h on ice, goat anti-human IgG-PE, % of events in gate P1 [panel CD40 E28A FAS CHO]
[3] = molecular target: human CD40 ectodomain fused to FAS transmembrane and intracellular domains, on CHO cells (human); experiment: flow cytometry, stably transfected CHO cells, 1 h on ice, goat anti-human IgG-PE, % of events in gate P1 [panel WT CD40-FAS CHO]
[4] = molecular target: CD40 R27A FAS (mutated CD40 ectodomain fused to FAS) on CHO cells (human); experiment: flow cytometry, stably transfected CHO cells, 1 h on ice, goat anti-human IgG-PE, % of events in gate P1 [panel CD40 R27A FAS CHO]
[5] = molecular target: CD40 R27A FAS (mutated CD40 ectodomain fused to FAS) on CHO cells (human); experiment: flow cytometry on CHO cells expressing CD40 R27A FAS (FIG. 19)
[6] = molecular target: human CD40 on cells (B cells, MDDCs, stably transfected CHO cells) (human) (UniProt P25942); experiment: flow cytometry, stably transfected CHO cells, 1 h on ice, goat anti-human IgG-PE, % of events in gate P1 [panel CD40 CHO]

| binding [1] | binding [2] | binding [3] | binding [4] | binding [5] | binding [6] | Binder |
| --- | --- | --- | --- | --- | --- | --- |
| binds | binds | binds | binds | binds |  | anti-CD40 12E12 human IgG4 antibody (antibody, V domains shown) VH: EVQLVESGGGLVQPGGSLKLSCATSGFTFSDYYMYWVRQAPGKGLEWVAYINSGGGSTYYPDTVKGRFTISRDNAKNTLYLQMNSLRAEDTAVYYCARRGLPFHAMDYWGQGTLVTVSS VL: DIQMTQSPSSLSASVGDRVTITCSASQGISNYLNWYQQKPGKAVKLLIYYTSILHSGVPSRFSGSGSGTDYTLTISSLQPEDFATYYCQQFNKLPPTFGGGTK |
| binds | binds | binds | binds | binds | binds | anti-CD40 11B6 human IgG4 antibody (antibody, V domains shown) VH: EVQLVQSGAEVKKPGASVKISCKASGYSFTGYYMHWVKQAHGQGLEWIGRINPYNGATSYNQNFKDRATLTVDKSTSTAYMELSSLRSEDTAVYYCAREDYVYWGQGTTVTVSS VL: DVVMTQSPLSLPVTLGQPASISCRSSQSLVHSNGNTYLHWYQQRPGQSPRLLIYKVSNRFSGVPDRFSGSGSGTDFTLKISRVEAEDVGVYFCSQSTHVPWTFGGGTKLEIKR |
